The source of these data is publication doi:10.1101/2024.09.20.614154.

Protein sequences, listed by entry. Tags and fused reporters are not part of them. Lines headed by an entry give the natural chain unless they say otherwise; changes in a name come on top.
UniProt Q9PL60, whole entry, looked up, stated change not applied: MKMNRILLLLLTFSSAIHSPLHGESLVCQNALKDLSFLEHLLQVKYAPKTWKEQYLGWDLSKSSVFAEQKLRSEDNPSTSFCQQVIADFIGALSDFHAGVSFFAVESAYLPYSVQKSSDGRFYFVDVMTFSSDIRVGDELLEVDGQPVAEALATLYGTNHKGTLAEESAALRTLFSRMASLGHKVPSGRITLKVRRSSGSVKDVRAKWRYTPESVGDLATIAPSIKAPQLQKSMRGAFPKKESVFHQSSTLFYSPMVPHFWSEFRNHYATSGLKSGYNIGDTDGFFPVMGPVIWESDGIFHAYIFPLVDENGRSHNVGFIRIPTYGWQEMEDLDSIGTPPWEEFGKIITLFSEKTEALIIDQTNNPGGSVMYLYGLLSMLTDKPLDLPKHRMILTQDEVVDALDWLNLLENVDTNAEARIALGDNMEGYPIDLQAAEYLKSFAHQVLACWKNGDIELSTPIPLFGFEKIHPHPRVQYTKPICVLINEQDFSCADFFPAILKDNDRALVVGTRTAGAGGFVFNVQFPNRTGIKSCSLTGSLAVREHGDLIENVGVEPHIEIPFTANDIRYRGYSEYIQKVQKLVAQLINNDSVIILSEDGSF

The target of test [1] is Chlamydia muridarum Chlamydial Protease Activity Factor, inactive variant S491A (Chlamydia muridarum) (UniProt Q9PL60). The test can be described thus: SEC. (In general: SEC sorts molecules by how far they enter the pores of the column.)
Test [2] deals with Chlamydia muridarum Chlamydial Protease Activity Factor, inactive variant S491A with K232Q (Chlamydia muridarum) (UniProt Q9PL60). The test can be described thus: SEC.

Results are given in words; binding and its absence hold for the method and conditions named. Some binding calls cover weakened binding; strength is not graded here.

For the substance “Chlamydia muridarum Chlamydial Protease Activity Factor, inactive variant S491A (from UniProt Q9PL60 1-601) (enzyme)”, the binding entry in test [1] is “binds”.

With “Chlamydia muridarum Chlamydial Protease Activity Factor, inactive variant S491A with K232Q (from UniProt Q9PL60 1-601) (enzyme)”, the binding entry in test [2] is “binds”.
